± gives the standard deviation of the averaged measurements. Some of the results follow.

Protein sequences, listed by entry. Tags and fused reporters are not part of them. Lines headed by an entry give the natural chain unless they say otherwise; changes in a name come on top.
UniProt Q96CX6, whole entry: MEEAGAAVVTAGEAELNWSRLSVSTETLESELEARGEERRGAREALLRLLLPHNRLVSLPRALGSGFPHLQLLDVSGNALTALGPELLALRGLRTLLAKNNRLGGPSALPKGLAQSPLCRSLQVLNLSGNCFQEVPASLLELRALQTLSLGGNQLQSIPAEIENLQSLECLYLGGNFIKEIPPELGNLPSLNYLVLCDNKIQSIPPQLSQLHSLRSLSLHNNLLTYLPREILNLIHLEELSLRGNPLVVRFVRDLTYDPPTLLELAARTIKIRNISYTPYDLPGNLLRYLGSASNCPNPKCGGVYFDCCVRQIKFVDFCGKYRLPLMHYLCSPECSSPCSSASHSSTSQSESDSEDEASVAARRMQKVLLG
UniProt Q8WVK2: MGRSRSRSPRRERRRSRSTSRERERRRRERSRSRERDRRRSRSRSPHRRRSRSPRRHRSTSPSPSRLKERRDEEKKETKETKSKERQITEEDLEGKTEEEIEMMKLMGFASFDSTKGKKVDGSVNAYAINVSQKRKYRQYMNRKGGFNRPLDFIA
UniProt Q96CU9: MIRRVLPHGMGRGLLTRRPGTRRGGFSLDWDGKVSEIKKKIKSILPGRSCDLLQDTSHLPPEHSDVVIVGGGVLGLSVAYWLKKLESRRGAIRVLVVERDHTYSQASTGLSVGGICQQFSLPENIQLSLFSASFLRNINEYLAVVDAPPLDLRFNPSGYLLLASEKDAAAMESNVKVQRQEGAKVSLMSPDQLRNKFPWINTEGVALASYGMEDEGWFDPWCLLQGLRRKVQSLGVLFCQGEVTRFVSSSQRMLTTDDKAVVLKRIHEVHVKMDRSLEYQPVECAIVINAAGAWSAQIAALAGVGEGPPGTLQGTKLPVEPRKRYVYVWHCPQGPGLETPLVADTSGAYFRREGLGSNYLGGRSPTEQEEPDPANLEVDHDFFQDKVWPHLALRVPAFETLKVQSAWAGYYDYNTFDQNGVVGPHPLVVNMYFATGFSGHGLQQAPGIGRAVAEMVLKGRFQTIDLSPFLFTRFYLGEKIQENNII
UniProt Q92619: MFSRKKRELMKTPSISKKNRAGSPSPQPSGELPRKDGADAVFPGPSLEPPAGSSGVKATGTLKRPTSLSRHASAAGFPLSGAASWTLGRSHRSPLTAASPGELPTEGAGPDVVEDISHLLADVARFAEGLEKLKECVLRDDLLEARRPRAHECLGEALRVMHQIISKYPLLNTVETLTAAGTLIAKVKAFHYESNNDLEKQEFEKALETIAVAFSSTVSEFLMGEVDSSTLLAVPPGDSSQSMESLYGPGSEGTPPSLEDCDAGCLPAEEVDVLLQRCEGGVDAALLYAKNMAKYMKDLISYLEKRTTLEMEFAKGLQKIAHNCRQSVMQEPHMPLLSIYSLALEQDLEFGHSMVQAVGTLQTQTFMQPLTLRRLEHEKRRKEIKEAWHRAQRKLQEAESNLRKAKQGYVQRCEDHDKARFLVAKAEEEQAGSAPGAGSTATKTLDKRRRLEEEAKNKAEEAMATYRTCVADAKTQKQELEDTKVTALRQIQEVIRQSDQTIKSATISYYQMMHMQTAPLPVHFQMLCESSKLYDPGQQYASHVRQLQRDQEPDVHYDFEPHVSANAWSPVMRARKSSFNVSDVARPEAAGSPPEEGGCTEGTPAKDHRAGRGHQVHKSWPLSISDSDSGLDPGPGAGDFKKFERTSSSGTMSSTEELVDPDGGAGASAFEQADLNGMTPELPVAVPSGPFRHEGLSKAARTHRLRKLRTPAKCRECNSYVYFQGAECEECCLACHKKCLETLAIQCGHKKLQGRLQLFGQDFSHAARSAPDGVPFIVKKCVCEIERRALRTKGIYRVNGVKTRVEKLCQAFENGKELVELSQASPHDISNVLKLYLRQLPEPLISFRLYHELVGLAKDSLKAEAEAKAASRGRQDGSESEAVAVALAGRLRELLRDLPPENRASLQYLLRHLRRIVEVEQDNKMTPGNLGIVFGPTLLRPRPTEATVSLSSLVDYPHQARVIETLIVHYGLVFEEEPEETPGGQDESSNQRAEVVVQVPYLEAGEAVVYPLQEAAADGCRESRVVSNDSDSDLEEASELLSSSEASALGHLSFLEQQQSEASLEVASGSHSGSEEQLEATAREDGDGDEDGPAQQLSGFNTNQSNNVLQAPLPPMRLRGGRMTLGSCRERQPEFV
UniProt Q96CS2: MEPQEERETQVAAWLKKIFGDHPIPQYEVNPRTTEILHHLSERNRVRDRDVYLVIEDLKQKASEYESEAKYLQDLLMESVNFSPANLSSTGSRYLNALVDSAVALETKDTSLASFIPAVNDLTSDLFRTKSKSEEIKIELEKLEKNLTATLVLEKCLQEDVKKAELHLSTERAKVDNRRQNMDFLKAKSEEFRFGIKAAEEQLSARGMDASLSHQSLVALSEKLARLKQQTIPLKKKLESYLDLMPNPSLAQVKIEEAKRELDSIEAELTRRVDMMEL
UniProt Q8WVJ2: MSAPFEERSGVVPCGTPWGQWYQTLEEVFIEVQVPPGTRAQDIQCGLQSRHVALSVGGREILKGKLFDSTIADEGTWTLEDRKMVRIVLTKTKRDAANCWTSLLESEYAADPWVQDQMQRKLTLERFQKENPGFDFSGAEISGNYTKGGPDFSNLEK
UniProt Q96CV9, whole entry: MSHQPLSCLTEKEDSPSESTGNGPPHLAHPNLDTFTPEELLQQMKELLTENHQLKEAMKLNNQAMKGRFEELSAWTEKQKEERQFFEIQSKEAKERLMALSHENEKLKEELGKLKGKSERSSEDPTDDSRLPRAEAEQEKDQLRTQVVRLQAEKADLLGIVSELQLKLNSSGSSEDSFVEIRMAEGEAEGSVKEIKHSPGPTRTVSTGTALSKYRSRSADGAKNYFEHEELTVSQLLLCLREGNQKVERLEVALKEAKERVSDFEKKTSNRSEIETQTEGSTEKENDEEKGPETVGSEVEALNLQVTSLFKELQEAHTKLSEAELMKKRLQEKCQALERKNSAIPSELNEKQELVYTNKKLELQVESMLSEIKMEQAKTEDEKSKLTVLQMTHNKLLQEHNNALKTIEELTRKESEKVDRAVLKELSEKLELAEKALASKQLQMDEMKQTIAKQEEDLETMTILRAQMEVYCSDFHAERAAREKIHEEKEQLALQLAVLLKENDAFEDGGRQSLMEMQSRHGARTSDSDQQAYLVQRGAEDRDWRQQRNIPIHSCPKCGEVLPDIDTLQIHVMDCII
UniProt Q96CW5, whole entry: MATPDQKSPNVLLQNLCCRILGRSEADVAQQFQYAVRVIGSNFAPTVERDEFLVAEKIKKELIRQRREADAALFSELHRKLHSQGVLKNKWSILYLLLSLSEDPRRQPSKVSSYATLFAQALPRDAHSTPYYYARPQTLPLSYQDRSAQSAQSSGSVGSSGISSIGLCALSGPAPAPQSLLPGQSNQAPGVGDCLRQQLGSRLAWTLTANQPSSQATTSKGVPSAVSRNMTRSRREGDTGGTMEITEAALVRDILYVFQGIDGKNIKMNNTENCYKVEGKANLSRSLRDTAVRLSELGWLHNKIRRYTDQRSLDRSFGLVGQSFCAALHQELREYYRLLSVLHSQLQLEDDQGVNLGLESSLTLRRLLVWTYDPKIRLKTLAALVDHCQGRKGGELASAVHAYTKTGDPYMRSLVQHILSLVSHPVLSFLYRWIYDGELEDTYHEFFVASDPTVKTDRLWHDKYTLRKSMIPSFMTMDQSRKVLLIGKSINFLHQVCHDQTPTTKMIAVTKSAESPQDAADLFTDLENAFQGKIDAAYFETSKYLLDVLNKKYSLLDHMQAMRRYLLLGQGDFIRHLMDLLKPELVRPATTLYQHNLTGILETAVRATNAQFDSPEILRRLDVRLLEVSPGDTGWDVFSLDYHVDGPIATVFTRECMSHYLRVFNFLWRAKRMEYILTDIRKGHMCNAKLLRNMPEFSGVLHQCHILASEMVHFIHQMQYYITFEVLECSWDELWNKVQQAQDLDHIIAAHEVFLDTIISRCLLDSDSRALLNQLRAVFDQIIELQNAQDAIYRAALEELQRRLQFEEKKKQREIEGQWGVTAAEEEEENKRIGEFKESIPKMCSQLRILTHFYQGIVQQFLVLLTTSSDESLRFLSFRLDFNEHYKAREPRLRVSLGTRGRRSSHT
UniProt Q969S9: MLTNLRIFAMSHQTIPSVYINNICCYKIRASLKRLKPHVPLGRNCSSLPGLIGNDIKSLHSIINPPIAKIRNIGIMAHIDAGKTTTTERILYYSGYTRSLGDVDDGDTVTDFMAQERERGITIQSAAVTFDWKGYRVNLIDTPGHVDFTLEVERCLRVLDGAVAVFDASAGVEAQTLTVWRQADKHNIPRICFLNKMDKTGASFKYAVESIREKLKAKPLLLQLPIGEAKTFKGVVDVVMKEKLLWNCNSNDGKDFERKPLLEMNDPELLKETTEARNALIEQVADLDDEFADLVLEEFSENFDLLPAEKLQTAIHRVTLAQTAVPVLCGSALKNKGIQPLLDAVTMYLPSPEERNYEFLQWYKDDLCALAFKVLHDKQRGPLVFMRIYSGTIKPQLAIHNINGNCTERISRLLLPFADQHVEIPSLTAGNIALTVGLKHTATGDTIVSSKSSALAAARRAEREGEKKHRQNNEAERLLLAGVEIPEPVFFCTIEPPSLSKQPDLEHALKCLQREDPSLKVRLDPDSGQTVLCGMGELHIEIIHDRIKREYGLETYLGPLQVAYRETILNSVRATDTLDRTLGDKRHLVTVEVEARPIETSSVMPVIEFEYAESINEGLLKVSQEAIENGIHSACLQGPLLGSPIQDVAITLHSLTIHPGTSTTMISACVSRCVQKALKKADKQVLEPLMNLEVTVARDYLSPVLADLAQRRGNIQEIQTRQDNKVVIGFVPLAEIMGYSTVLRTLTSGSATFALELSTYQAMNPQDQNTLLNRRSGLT
UniProt Q92522: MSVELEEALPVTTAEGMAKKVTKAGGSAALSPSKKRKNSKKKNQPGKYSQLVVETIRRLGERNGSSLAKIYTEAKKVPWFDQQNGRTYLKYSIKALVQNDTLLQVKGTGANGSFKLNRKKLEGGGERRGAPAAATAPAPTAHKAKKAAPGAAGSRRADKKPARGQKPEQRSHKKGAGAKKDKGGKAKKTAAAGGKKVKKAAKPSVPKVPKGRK
UniProt Q96EK6: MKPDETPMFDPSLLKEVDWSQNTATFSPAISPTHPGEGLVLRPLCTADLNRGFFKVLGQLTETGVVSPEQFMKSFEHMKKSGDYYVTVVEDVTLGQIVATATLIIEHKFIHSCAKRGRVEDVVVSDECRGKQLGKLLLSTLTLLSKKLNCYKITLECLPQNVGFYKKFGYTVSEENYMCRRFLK
UniProt Q8WWI5: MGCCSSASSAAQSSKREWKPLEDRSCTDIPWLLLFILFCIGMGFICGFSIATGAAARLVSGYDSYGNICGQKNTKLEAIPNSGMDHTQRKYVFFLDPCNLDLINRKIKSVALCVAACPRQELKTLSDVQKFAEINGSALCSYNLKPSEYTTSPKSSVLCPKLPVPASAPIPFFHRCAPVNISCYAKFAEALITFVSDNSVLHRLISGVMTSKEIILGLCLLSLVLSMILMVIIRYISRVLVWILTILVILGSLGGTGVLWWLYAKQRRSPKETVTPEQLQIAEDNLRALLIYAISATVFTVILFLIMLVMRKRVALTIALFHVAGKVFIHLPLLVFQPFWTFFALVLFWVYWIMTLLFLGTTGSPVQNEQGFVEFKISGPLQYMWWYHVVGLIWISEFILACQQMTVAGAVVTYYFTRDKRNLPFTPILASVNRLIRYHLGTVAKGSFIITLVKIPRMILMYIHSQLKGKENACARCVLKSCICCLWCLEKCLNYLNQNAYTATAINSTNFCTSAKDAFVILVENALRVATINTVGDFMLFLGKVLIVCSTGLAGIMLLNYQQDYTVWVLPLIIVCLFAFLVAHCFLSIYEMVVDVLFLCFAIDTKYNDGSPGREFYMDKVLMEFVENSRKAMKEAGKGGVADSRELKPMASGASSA

Compound in the assay: Nc1nc2c(ncn2[C@@H]2O[C@H](COP(=O)(O)OP(=O)(O)OP(=O)(O)O)[C@@H](O)[C@H]2O)c(=O)[nH]1 [guanosine triphosphate]
Briefly: NP40-soluble protein abundance relative to vehicle (solubility fold change) (ratio); higher = more soluble protein in presence of GTP. In outline: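 In three independent experiments, Jurkat crude lysate made by Dounce homogenisation was treated for 10 min at room temperature and then 3 min at 37 °C with eight concentrations ranging from 0.1 to 10 mM. It was then solubilised with 0.8% NP40 plus benzonase for 60 min at 4 °C and ultracentrifuged. The supernatant was TMT-labelled for LC-MS/MS, and each value is the fold change against the detergent-processed vehicle for the same replicate, using vsn-normalised intensities.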

As for LRRC58 (UniProt Q96CX6), the NP40-soluble protein abundance was 0.999 ± 0.054 (concentration: 0.1mM); 0.971 ± 0.033 (concentration: 0.5mM); 0.919 ± 0.037 (concentration: 1mM); 0.908 ± 0.047 (concentration: 2mM); 0.907 ± 0.049 (concentration: 4mM); 0.869 ± 0.043 (concentration: 6mM). The NP40-soluble protein abundance stood at 0.872 ± 0.08 (concentration: 8mM) and 0.847 ± 0.037 (concentration: 10mM).

Consider UniProt Q8WVK2 and related entries, for which the NP40-soluble protein abundance (concentration: 0.1mM) came to 0.99114 ± 6.7e-05; the NP40-soluble protein abundance (concentration: 0.5mM) worked out at 1.12 ± 0.018; the NP40-soluble protein abundance (concentration: 1mM) was found to be 1.12 ± 0.023; the NP40-soluble protein abundance (concentration: 2mM) worked out at 1.08 ± 0.068; the NP40-soluble protein abundance (concentration: 4mM) was found to be 1.07 ± 0.012; the NP40-soluble protein abundance (concentration: 6mM) was found to be 1.07 ± 0.095. The NP40-soluble protein abundance reads like this: (concentration: 8mM) 1.16 ± 0.11; (concentration: 10mM) 1.18 ± 0.098.

For the target UniProt Q96CU9 and related entries, the NP40-soluble protein abundance runs as follows: (concentration: 0.1mM) 1.09 ± 0.048; (concentration: 0.5mM) 1.08 ± 0.07; (concentration: 1mM) 0.999 ± 0.07; (concentration: 2mM) 1.02 ± 0.088; (concentration: 4mM) 1.04 ± 0.076; (concentration: 6mM) 1.06 ± 0.11. The NP40-soluble protein abundance stood at 1.02 ± 0.046 (concentration: 8mM) and 0.976 ± 0.06 (concentration: 10mM).

As for UniProt Q92619, the NP40-soluble protein abundance is, setting by setting: (concentration: 0.1mM) 1.01 ± 0.013; (concentration: 0.5mM) 1.03 ± 0.03; (concentration: 1mM) 1.03 ± 0.031; (concentration: 2mM) 1.02 ± 0.021; (concentration: 4mM) 1.02 ± 0.029; (concentration: 6mM) 1.01 ± 0.021. Further, the NP40-soluble protein abundance (concentration: 8mM) was 1.02 ± 0.036 and the NP40-soluble protein abundance (concentration: 10mM) stood at 0.995 ± 0.04.

For UniProt Q96CS2 and related entries, the NP40-soluble protein abundance is, setting by setting: (concentration: 0.1mM) 1.03 ± 0.17; (concentration: 0.5mM) 0.915 ± 0.15; (concentration: 1mM) 1.24 ± 0.32; (concentration: 2mM) 1.19 ± 0.11; (concentration: 4mM) 1.09 ± 0.17; (concentration: 6mM) 1.21 ± 0.12. The NP40-soluble protein abundance by setting is: (concentration: 8mM) 1.06 ± 0.22; (concentration: 10mM) 1.39 ± 0.58.

On to NUDCD2 (UniProt Q8WVJ2), for which the NP40-soluble protein abundance is, setting by setting: (concentration: 0.1mM) 0.901 ± 0.067; (concentration: 0.5mM) 0.894 ± 0.088; (concentration: 1mM) 0.907 ± 0.082; (concentration: 2mM) 0.876 ± 0.11; (concentration: 4mM) 0.846 ± 0.12; (concentration: 6mM) 0.868 ± 0.13. For the same target, the NP40-soluble protein abundance runs as follows: (concentration: 8mM) 0.849 ± 0.11; (concentration: 10mM) 0.891 ± 0.11.

As for UniProt Q96CV9 and related entries, the NP40-soluble protein abundance (concentration: 0.1mM) is 0.921 ± 0.055; the NP40-soluble protein abundance (concentration: 0.5mM) amounted to 0.93 ± 0.096; the NP40-soluble protein abundance (concentration: 1mM) came to 0.934 ± 0.036; the NP40-soluble protein abundance (concentration: 2mM) stood at 0.896 ± 0.088; the NP40-soluble protein abundance (concentration: 4mM) came out at 0.881 ± 0.12; the NP40-soluble protein abundance (concentration: 6mM) is 0.907 ± 0.069. Further, the NP40-soluble protein abundance is, setting by setting: (concentration: 8mM) 0.919 ± 0.08; (concentration: 10mM) 0.928 ± 0.063.

UniProt Q96CW5 and related entries: the NP40-soluble protein abundance is, setting by setting: (concentration: 0.1mM) 1.06 ± 0.092; (concentration: 0.5mM) 1.18 ± 0.24; (concentration: 1mM) 1.26 ± 0.39; (concentration: 2mM) 1.49 ± 0.43; (concentration: 4mM) 1.58 ± 0.5; (concentration: 6mM) 1.49 ± 0.45. For the same target, the NP40-soluble protein abundance (concentration: 8mM) is 1.42 ± 0.42 and the NP40-soluble protein abundance (concentration: 10mM) was determined as 1.33 ± 0.4.

With MRPL53 (UniProt Q96EL3), the NP40-soluble protein abundance by setting is: (concentration: 0.1mM) 0.935 ± 0.065; (concentration: 0.5mM) 0.934 ± 0.09; (concentration: 1mM) 1.13 ± 0.22; (concentration: 2mM) 1.2 ± 0.2; (concentration: 4mM) 1.27 ± 0.27; (concentration: 6mM) 1.18 ± 0.23. The NP40-soluble protein abundance reads like this: (concentration: 8mM) 1.14 ± 0.18; (concentration: 10mM) 1.15 ± 0.25.

With UniProt Q969S9 and related entries, the NP40-soluble protein abundance was 0.999 ± 0.11 (concentration: 0.1mM); 1.03 ± 0.051 (concentration: 0.5mM); 0.971 ± 0.12 (concentration: 1mM); 0.981 ± 0.12 (concentration: 2mM); 0.981 ± 0.084 (concentration: 4mM); 0.969 ± 0.1 (concentration: 6mM). Moreover, the NP40-soluble protein abundance is 0.972 ± 0.15 (concentration: 8mM) and 0.921 ± 0.074 (concentration: 10mM).

For the target H1FX (UniProt Q92522), the NP40-soluble protein abundance runs as follows: (concentration: 0.1mM) 0.939 ± 0.087; (concentration: 0.5mM) 0.89 ± 0.036; (concentration: 1mM) 1.14 ± 0.14; (concentration: 2mM) 1.11 ± 0.08; (concentration: 4mM) 1.18 ± 0.13; (concentration: 6mM) 1.16 ± 0.12. The NP40-soluble protein abundance was determined as 1.12 ± 0.14 (concentration: 8mM) and 1.41 ± 0.24 (concentration: 10mM).

As to GNPNAT1 (UniProt Q96EK6), the NP40-soluble protein abundance by setting is: (concentration: 0.1mM) 1.03 ± 0.049; (concentration: 0.5mM) 1.02 ± 0.027; (concentration: 1mM) 0.976 ± 0.031; (concentration: 2mM) 0.967 ± 0.018; (concentration: 4mM) 0.947 ± 0.037; (concentration: 6mM) 0.923 ± 0.056. The NP40-soluble protein abundance was 0.908 ± 0.056 (concentration: 8mM) and 0.882 ± 0.045 (concentration: 10mM).

For SLC44A1 (UniProt Q8WWI5), the NP40-soluble protein abundance (concentration: 0.1mM) was found to be 0.943 ± 0.066; the NP40-soluble protein abundance (concentration: 0.5mM) turned out to be 0.931 ± 0.078; the NP40-soluble protein abundance (concentration: 1mM) is 0.926 ± 0.061; the NP40-soluble protein abundance (concentration: 2mM) was determined as 0.894 ± 0.093; the NP40-soluble protein abundance (concentration: 4mM) worked out at 0.934 ± 0.07; the NP40-soluble protein abundance (concentration: 6mM) is 0.879 ± 0.1. Moreover, the NP40-soluble protein abundance is, setting by setting: (concentration: 8mM) 0.899 ± 0.1; (concentration: 10mM) 0.938 ± 0.08.

As to UniProt Q96K17, the NP40-soluble protein abundance amounted to 0.827 ± 0.043 (concentration: 0.1mM); 0.819 ± 0.059 (concentration: 0.5mM); 0.986 ± 0.026 (concentration: 1mM); 0.969 ± 0.049 (concentration: 2mM); 0.963 ± 0.036 (concentration: 4mM); 0.983 ± 0.041 (concentration: 6mM). In addition, the NP40-soluble protein abundance is 0.932 ± 0.1 (concentration: 8mM) and 1.06 ± 0.045 (concentration: 10mM).

The values above are taken from the supplement of paper PMC6411743.
